From article PMC10870071
These are yes or no findings as the source states them, for the method shown. In cells and extracts the contact can be indirect. These calls come from enrichment with a bait or labelling near it, and not all partners need be listed.

Sequences of proteins named here, by UniProt entry; tags and fusion partners are left off.
UniProt Q13283: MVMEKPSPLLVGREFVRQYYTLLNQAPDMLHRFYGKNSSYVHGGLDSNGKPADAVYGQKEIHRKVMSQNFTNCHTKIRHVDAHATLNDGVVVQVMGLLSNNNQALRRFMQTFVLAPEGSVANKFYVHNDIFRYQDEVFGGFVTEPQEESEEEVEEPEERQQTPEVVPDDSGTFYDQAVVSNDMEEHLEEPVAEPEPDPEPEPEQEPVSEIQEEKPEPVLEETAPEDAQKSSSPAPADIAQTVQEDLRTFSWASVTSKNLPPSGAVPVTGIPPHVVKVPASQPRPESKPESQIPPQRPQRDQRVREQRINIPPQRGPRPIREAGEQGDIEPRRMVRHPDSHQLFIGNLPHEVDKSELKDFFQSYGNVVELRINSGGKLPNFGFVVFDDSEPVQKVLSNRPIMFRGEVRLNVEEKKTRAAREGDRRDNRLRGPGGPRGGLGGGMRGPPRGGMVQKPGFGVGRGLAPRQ

Target: HA-G3BP1 (HA-tagged human Ras GTPase-activating protein-binding protein 1) (human) (UniProt Q13283)
Assay: affinity purification with mass spectrometry; HA-G3BP1 complex obtained by co-IP with anti-HA antibody from UMUC3 cells stably expressing HA-G3BP1; SDS-PAGE, silver stain, trypsin digestion, nano-LC-MS/MS

B1: endogenous SLU7 (protein, UniProt O95391 1-586)
chain: MSATVVDAVNAAPLSGSKEMSLEEPKKMTREDWRKKKELEEQRKLGNAPAEVDEEGKDINPHIPQYISSVPWYIDPSKRPTLKHQRPQPEKQKQFSSSGEWYKRGVKENSIITKYRKGACENCGAMTHKKKDCFERPRRVGAKFTGTNIAPDEHVQPQLMFDYDGKRDRWNGYNPEEHMKIVEEYAKVDLAKRTLKAQKLQEELASGKLVEQANSPKHQWGEEEPNSQMEKDHNSEDEDEDKYADDIDMPGQNFDSKRRITVRNLRIREDIAKYLRNLDPNSAYYDPKTRAMRENPYANAGKNPDEVSYAGDNFVRYTGDTISMAQTQLFAWEAYDKGSEVHLQADPTKLELLYKSFKVKKEDFKEQQKESILEKYGGQEHLDAPPAELLLAQTEDYVEYSRHGTVIKGQERAVACSKYEEDVKIHNHTHIWGSYWKEGRWGYKCCHSFFKYSYCTGEAGKEIVNSEECIINEITGEESVKKPQTLMELHQEKLKEEKKKKKKKKKKHRKSSSDSDDEEKKHEKLKKALNAEEARLLHVKETMQIDERKRPYNSMYETREPTEEEMEAYRMKRQRPDDPMASFLGQ
binding: binds
